Reference: patent publication US4472428A, “Halogenated prostacyclins pharmaceutical use thereof and hydroxy intermediates therefore” (Teijin Limited, priority 1980, dated 1984)
Structures can show the parent of a compound that is named as a salt. At least one read-out could not be matched to a standard name with certainty.

Test system: blood pressure / platelet aggregation
Test: ratio of the blood pressure lowering activity and the platelet aggregation inhibiting activity
Parameters: species or system rats (blood pressure); rabbits (platelets)
Settings: P-ED20/platelet IC50 relative to PGI2 = 1
Method: (2) From the results obtained in Examples 100 and 101, the ratio of the blood pressure lowering activity and the platelet aggregation inhibiting activity was calculated. The result is shown in Table 3 together with the ratio obtained with PGI2.

Row | SMILES | Ratio
1 | CCCCCC(O)C=CC1C(O)CC2OC(=C(Cl)CCCC(=O)O)CC21 (centres unmarked) [Compound 686, (5E)-5-chloro-PGI2, sodium salt] | 4
2 | CCCCCC(O)C=CC1C(O)CC2OC(=CCCCC(=O)O)C(F)C21 (centres unmarked) [Compound 688, sodium salt of 7-fluoro-PGI2] | 32
